Test results as given in PubChem BioAssay AID328 (DTP/NCI, 2004).
The list is a part of this screen's results and no random one: it gathers tests that were run many times, whatever their T/C, doses with no T/C, and many T/C values between a quarter and a half above the control. Other doses and runs of a compound stand elsewhere. T/C: endpoint of the treated group in % of that of the vehicle group. Some doses have a count of surviving animals in place of a T/C: the source files T/C as zero there, which appears to mark a toxic dose or a test without result, not a measured value. Some doses without a T/C left all or most animals alive at the check, yet need not have been tolerated: survival well below the control is almost never listed, so the zero probably covers shortened survival too. Counts of survivors are from the toxicity check (mostly the fifth day) where no day follows; animals may have died later. Schedule codes are those of the source, read here as Q, the interval in days (D) or hours (H), X, the number of doses. Where survival is the endpoint, this PubChem deposit counts one and a half times the control or more as active, and values a quarter to a half above the control carry no call in these data; other NCI protocols may use other cut-offs. Some T/C values carry the count of animals alive at the toxicity check (mostly the fifth day); without a count, all were alive then. Some doses were run more than once; their values stand side by side, smallest first.

Test system: BDF1 mice, P388 leukemia ip, median survival T/C
Assay: NCI In Vivo Anticancer Drug Screen. Data for tumor model P388 Leukemia (intraperitoneal) in B6D2F1 (BDF1) mice
Details: T/C endpoint: median survival time, higher T/C = longer survival
Summary of the method: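 Antitumour effect was judged in vivo: survival in drug-treated mice, normalised to that of vehicle-dosed controls, gives the reported T/C.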

[1] = dose: 75.0 mg/kg/injection, schedule: Q01DX009 (ip), vehicle: Klucel (hydroxypropylcellulose) (HPC)
[2] = dose: 200.0 mg/kg/injection, schedule: Q04DX003 (ip), vehicle: Klucel (hydroxypropylcellulose) (HPC)
[3] = dose: 100.0 mg/kg/injection, schedule: Q04DX003 (ip), vehicle: saline
[4] = dose: 30.0 mg/kg/injection, schedule: Q04DX003 (ip), vehicle: saline
[5] = dose: 5.0 mg/kg/injection, schedule: Q01DX009 (ip), vehicle: saline with Tween-80
[6] = dose: 10.0 mg/kg/injection, schedule: Q01DX009 (ip), vehicle: saline with Tween-80
[7] = dose: 50.0 mg/kg/injection, schedule: Q04DX003 (ip), vehicle: saline with Tween-80
[8] = dose: 25.0 mg/kg/injection, schedule: Q01DX009 (ip), vehicle: Klucel (hydroxypropylcellulose) (HPC)
[9] = dose: 110.0 mg/kg/injection, schedule: Q04DX003 (ip), vehicle: Klucel (hydroxypropylcellulose) (HPC)
[10] = dose: 165.0 mg/kg/injection, schedule: Q04DX003 (ip), vehicle: Klucel (hydroxypropylcellulose) (HPC)
[11] = dose: 12.5 mg/kg/injection, schedule: Q01DX009 (ip), vehicle: saline with Tween-80
[12] = dose: 200.0 mg/kg/injection, schedule: Q01DX009 (ip), vehicle: saline with Tween-80

With `C1=CC23C4CCC2C2C4C4C(=C1)C3C2N1CCCCC41` (configuration not stated) the survivor count [1] was 4 of 6, the survivor count (dose: 115.0 mg/kg/injection, schedule: Q01DX009 (ip), vehicle: Klucel (hydroxypropylcellulose) (HPC)) was 1 of 6 and the survivor count (dose: 150.0 mg/kg/injection, schedule: Q04DX003 (ip), vehicle: Klucel (hydroxypropylcellulose) (HPC)) was 0 of 6. The survivor count (dose: 170.0 mg/kg/injection, schedule: Q01DX009 (ip), vehicle: Klucel (hydroxypropylcellulose) (HPC)) was 0 of 6.
For `O=C1/C(=C\c2ccccc2)C(Br)c2ccccc21` (configuration not stated), the survivor count (dose: 50.0 mg/kg/injection, schedule: Q01DX009 (ip), vehicle: water) was 3 of 6.
`CN(C)c1ccc(C=C(C#N)C#N)cc1` was tested, and the survivor count (dose: 100.0 mg/kg/injection, schedule: Q01DX009 (ip), vehicle: Klucel (hydroxypropylcellulose) (HPC)) was 3 of 6.
`CN1CCN(c2nc3cccnc3s2)CC1` was tested, and the survivor count (dose: 200.0 mg/kg/injection, schedule: Q04DX003 (ip), vehicle: saline) was 2 of 6 and the survivor count (dose: 400.0 mg/kg/injection, schedule: Q04DX003 (ip), vehicle: saline) was 0 of 6.
`COC(=O)C(CCC(=O)O)NC(=O)OCc1ccccc1` (configuration not stated) was tested, and the survivor count [2] was 2 of 6 and the survivor count (dose: 400.0 mg/kg/injection, schedule: Q04DX003 (ip), vehicle: Klucel (hydroxypropylcellulose) (HPC)) was 0 of 6.
In the case of `CN(C)c1nn2c(-c3ccccc3)nnc2o1`, the T/C [3] is reported as 125 % of control.
With `NC(=O)NN=C1CCCCC1` the survivor count (dose: 70.0 mg/kg/injection, schedule: Q01DX009 (ip), vehicle: Klucel (hydroxypropylcellulose) (HPC)) was 0 of 6 and the survivor count (dose: 105.0 mg/kg/injection, schedule: Q04DX003 (ip), vehicle: Klucel (hydroxypropylcellulose) (HPC)) was 3 of 6.
`CO[C@@]12[C@H](COC(N)=O)C3=C(C(=O)C(C)=C(N)C3=O)N1C[C@@H]1N[C@@H]12` was tested, and the T/C (dose: 0.13 mg/kg/injection, schedule: Q01DX010 (ip), vehicle: saline) was 138 and 140 % of control [4 of 6 alive], the survivor count (dose: 6.5 mg/kg/injection, schedule: Q04DX003 (ip), vehicle: saline) was 8 of 8 and the survivor count (dose: 10.8 mg/kg/injection, schedule: Q04DX003 (ip), vehicle: saline) was 8 of 8. For the same compound, the survivor count (dose: 12.0 mg/kg/injection, schedule: Q01DX001 (ip), vehicle: saline) was 10 of 10, the survivor count (dose: 18.0 mg/kg/injection, schedule: Q04DX003 (ip), vehicle: saline) was 5 of 8 and the survivor count [4] was 2 of 8.
With `NNC1=NCCS1` the survivor count (dose: 2.5 mg/kg/injection, schedule: Q01DX009 (ip), vehicle: saline with Tween-80) was 1 of 6, the survivor count [5] was 0 of 6 and the survivor count [6] was 0 of 6.
In the case of `Nc1ccc(OCCNS(=O)(=O)c2cccc(S(=O)(=O)F)c2)c(Cl)c1`, the survivor count (dose: 400.0 mg/kg/injection, schedule: Q01DX009 (ip), vehicle: saline) is reported as 0 of 6.
`Cc1ccc2c(ccc3c[n+]4ccccc4c(C)c32)c1` was tested, and the T/C (dose: 22.0 mg/kg/injection, schedule: Q04DX003 (ip), vehicle: saline with Tween-80) was 136 % of control, the T/C [7] was 136 % of control and the survivor count [7] was 6 of 6. For the same compound, the survivor count (dose: 75.0 mg/kg/injection, schedule: Q04DX003 (ip), vehicle: saline with Tween-80) was 5 of 6.
`O=S(=O)(F)c1cccc(C[P+](c2ccccc2)(c2ccccc2)c2ccccc2)c1` was tested, and the T/C (dose: 8.25 mg/kg/injection, schedule: Q01DX009 (ip), vehicle: Klucel (hydroxypropylcellulose) (HPC)) was 131 % of control, the T/C (dose: 16.5 mg/kg/injection, schedule: Q01DX009 (ip), vehicle: Klucel (hydroxypropylcellulose) (HPC)) was 130 % of control and the T/C [8] was 125 % of control [5 of 6 alive]. The survivor count (dose: 55.0 mg/kg/injection, schedule: Q01DX009 (ip), vehicle: Klucel (hydroxypropylcellulose) (HPC)) was 4 of 6, the T/C [9] was 116, 120 [5 of 6 alive], 125, 140 % of control and the survivor count [9] was 4 of 6. For the same compound, the T/C [10] was 125 and 127 % of control, the survivor count [10] was 4 of 6 and the survivor count (dose: 170.0 mg/kg/injection, schedule: Q04DX003 (ip), vehicle: Klucel (hydroxypropylcellulose) (HPC)) was 5 of 6.
For `O=C(Nc1cccc(C(F)(F)F)c1)Nc1ccc(Oc2ccc(Cl)cc2)cc1S(=O)(=O)O`, the T/C (dose: 200.0 mg/kg/injection, schedule: Q04DX003 (ip), vehicle: saline sonified) was 131 % of control.
For `CCNC(=O)OCc1c(COC(=O)NCC)c(-c2ccc(F)cc2)n2c1CCC2`, the T/C (dose: 12.5 mg/kg/injection, schedule: Q01DX009 (ip), vehicle: other) was 149 % of control, the survivor count (dose: 50.0 mg/kg/injection, schedule: Q01DX009 (ip), vehicle: other) was 2 of 6 and the survivor count (dose: 100.0 mg/kg/injection, schedule: Q01DX009 (ip), vehicle: other) was 1 of 6. For the same compound, the survivor count (dose: 200.0 mg/kg/injection, schedule: Q01DX009 (ip), vehicle: other) was 0 of 6.
For `CO[C@H]1C[C@](C)(O)Cc2cc3c(c(O)c21)C(=O)c1c(O)cc2c(c1C3=O)O[C@@H]1O[C@@]2(C)[C@H](O)[C@@H](N(C)C)[C@@H]1O`, the survivor count (dose: 83.3 mg/kg/injection, schedule: Q04DX003 (ip), vehicle: lactate) was 7 of 8.
`CN(C)c1ccc(/C=C/c2ccncc2)cc1` was tested, and the T/C (dose: 6.25 mg/kg/injection, schedule: Q01DX009 (ip), vehicle: saline with Tween-80) was 125 % of control and the survivor count [11] was 0 of 6.
For `BrCc1cc2ccccc2cc1CBr`, the T/C (dose: 50.0 mg/kg/injection, schedule: Q04DX003 (ip), vehicle: saline) was 125 % of control and the T/C [3] was 129 % of control.
`[O-][n+]1c(CCl)nc2ccccc2c1-c1ccccc1F` was tested, and the survivor count [12] was 1 of 6.
In the case of `CCN1CC1`, the survivor count [8] is reported as 0 of 6.
For `Nc1nc2c(ncn2C2OC(CO)C(O)C2N)c(=O)[nH]1` (configuration not stated), the T/C (dose: 200.0 mg/kg/injection, schedule: Q04DX003 (ip), vehicle: saline with Tween-80) was 126 % of control.
With `O=NN(CCCl)C(=O)Nc1cccc(O)c1` the T/C (dose: 9.6 mg/kg/injection, schedule: Q04DX003 (ip), vehicle: Klucel (hydroxypropylcellulose) (HPC)) was 133 % of control, the T/C (dose: 14.0 mg/kg/injection, schedule: Q04DX003 (ip), vehicle: Klucel (hydroxypropylcellulose) (HPC)) was 141 % of control and the T/C (dose: 35.0 mg/kg/injection, schedule: Q01DX009 (ip), vehicle: Klucel (hydroxypropylcellulose) (HPC)) was 133 % of control. The T/C (dose: 50.0 mg/kg/injection, schedule: Q01DX009 (ip), vehicle: Klucel (hydroxypropylcellulose) (HPC)) was 145 % of control, the survivor count [1] was 4 of 6 and the survivor count (dose: 150.0 mg/kg/injection, schedule: Q04DX003 (ip), vehicle: saline) was 6 of 6. The survivor count [2] was 5 of 6.
With `CC(NC(=O)c1ccc(Cl)cc1Cl)c1ccccc1` (configuration not stated) the survivor count (dose: 200.0 mg/kg/injection, schedule: Q01DX001 (ip), vehicle: other) was 6 of 6.
With `COCCCNC1=C(Cl)C(=O)c2ccccc2C1=O` the survivor count (dose: 400.0 mg/kg/injection, schedule: Q01DX009 (ip), vehicle: Klucel (hydroxypropylcellulose) (HPC)) was 2 of 6.
For `S=c1nn[nH]n1-c1ccccc1.[Cd]`, the survivor count (dose: 50.0 mg/kg/injection, schedule: Q01DX009 (ip), vehicle: saline with Tween-80) was 0 of 6, the survivor count (dose: 100.0 mg/kg/injection, schedule: Q01DX009 (ip), vehicle: saline with Tween-80) was 0 of 6 and the survivor count [12] was 0 of 6.
For `COc1cccc(/C=N/NC(=O)C2CCN(C(=S)NC3CC4C=CC3C4)CC2)c1O` (configuration not stated), the survivor count (dose: 3.12 mg/kg/injection, schedule: Q01DX009 (ip), vehicle: saline with Tween-80) was 5 of 6 and the survivor count [11] was 6 of 6.
With `N#Cc1c(NN)n(C2OC(CO)C(O)C2O)c2ncnc(N)c12` (configuration not stated) the T/C [4] was 149 % of control.
With `COC1=CC(=O)c2c(O)cc(OC)cc2C1=O` the T/C [5] was 129 % of control and the T/C [6] was 132 % of control.
With `O=C(N/N=C\c1ccc(N(CCCl)CCCl)cc1)c1cccnc1` the survivor count (dose: 400.0 mg/kg/injection, schedule: Q01DX009 (ip), vehicle: gum acacia) was 5 of 6.
